# Reference: the supplement of paper PMC8728848
# This is one part of the list.
# Legend:
# Test in all cases: glycan array binding signal (z-score within array); higher = stronger binding
# Conditions in all cases: glycan notation: IUPAC condensed, linker removed
# [1] = target: Neu5Ac(a2-6)Gal(b1-4)GlcNAc(b1-2)Man(a1-3)[GlcNAc(b1-4)][Neu5Ac(a2-6)Gal(b1-4)GlcNAc(b1-2)Man(a1-6)]Man(b1-4)GlcNAc(b1-4)GlcNAc
# Outline: (§1)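 Columns mapping to the same glycan were averaged after glycan names were converted to IUPAC-condensed notation. The data come from 3228 arrays in the Consortium for Functional Glycomics database, limited to those with an available protein sequence. Binding is reported as a within-array Z-score averaged across arrays of one protein sequence and across linkers.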
# [2] = target: Neu5Ac(a2-6)Gal(b1-4)GlcNAc(b1-2)Man(a1-3)[Man(a1-6)]Man(b1-4)GlcNAc(b1-4)GlcNAc
# Outline: as §1
# [3] = target: Neu5Ac(a2-6)Gal(b1-4)GlcNAc(b1-2)Man(a1-3)[Neu5Ac(a2-3)Gal(b1-4)GlcNAc(b1-2)Man(a1-6)]Man(b1-4)GlcNAc(b1-4)GlcNAc
# Outline: as §1
# [4] = target: Neu5Ac(a2-6)Gal(b1-4)GlcNAc(b1-2)Man(a1-3)[Neu5Ac(a2-6)Gal(b1-4)GlcNAc(b1-2)Man(a1-6)]Man(b1-4)GlcNAc(b1-4)GlcNAc
# Outline: as §1
# [5] = target: Neu5Ac(a2-6)Gal(b1-4)GlcNAc(b1-2)Man(a1-3)[Neu5Ac(a2-6)Gal(b1-4)GlcNAc(b1-2)Man(a1-6)]Man(b1-4)GlcNAc(b1-4)[Fuc(a1-6)]GlcNAc
# Outline: as §1
# [6] = target: Neu5Ac(a2-6)Gal(b1-4)GlcNAc(b1-2)Man(a1-6)Man(b1-4)GlcNAc(b1-4)GlcNAc
# Outline: as §1
# [7] = target: Neu5Ac(a2-6)Gal(b1-4)GlcNAc(b1-2)Man(a1-6)[Gal(b1-4)GlcNAc(b1-2)Man(a1-3)]Man(b1-4)GlcNAc(b1-4)GlcNAc
# Outline: as §1
# [8] = target: Neu5Ac(a2-6)Gal(b1-4)GlcNAc(b1-2)Man(a1-6)[GlcNAc(b1-2)Man(a1-3)]Man(b1-4)GlcNAc(b1-4)GlcNAc
# Outline: as §1
# [9] = target: Neu5Ac(a2-6)Gal(b1-4)GlcNAc(b1-2)Man(a1-6)[Man(a1-3)]Man(b1-4)GlcNAc(b1-4)GlcNAc
# Outline: as §1
# [10] = target: Neu5Ac(a2-6)Gal(b1-4)GlcNAc(b1-2)[Neu5Ac(a2-6)Gal(b1-4)GlcNAc(b1-4)]Man(a1-3)[GlcNAc(b1-4)][Neu5Ac(a2-6)Gal(b1-4)GlcNAc(b1-2)[Neu5Ac(a2-6)Gal(b1-4)GlcNAc(b1-6)]Man(a1-6)]Man(b1-4)GlcNAc(b1-4)GlcNAc
# Outline: as §1
# [11] = target: Neu5Ac(a2-6)Gal(b1-4)GlcNAc(b1-2)[Neu5Ac(a2-6)Gal(b1-4)GlcNAc(b1-4)]Man(a1-3)[GlcNAc(b1-4)][Neu5Ac(a2-6)Gal(b1-4)GlcNAc(b1-4)Man(a1-6)]Man(b1-4)GlcNAc(b1-4)GlcNAc
# Outline: as §1
# [12] = target: Neu5Ac(a2-6)Gal(b1-4)GlcNAc(b1-2)[Neu5Ac(a2-6)Gal(b1-4)GlcNAc(b1-6)]Man(a1-6)[Neu5Ac(a2-6)Gal(b1-4)GlcNAc(b1-2)Man(a1-3)][GlcNAc(b1-4)]Man(b1-4)GlcNAc(b1-4)GlcNAc
# Outline: as §1
# [13] = target: Neu5Ac(a2-6)Gal(b1-4)GlcNAc(b1-3)Gal(b1-3)GlcNAc
# Outline: as §1
# [14] = target: Neu5Ac(a2-6)Gal(b1-4)GlcNAc(b1-3)Gal(b1-4)GlcNAc
# Outline: as §1
# [15] = target: Neu5Ac(a2-6)Gal(b1-4)GlcNAc(b1-3)Gal(b1-4)GlcNAc(b1-2)Man(a1-3)[Neu5Ac(a2-6)Gal(b1-4)GlcNAc(b1-3)Gal(b1-4)GlcNAc(b1-2)Man(a1-6)]GalNAc
# Outline: as §1
# [16] = target: Neu5Ac(a2-6)Gal(b1-4)GlcNAc(b1-3)Gal(b1-4)GlcNAc(b1-3)Gal(b1-4)GlcNAc
# Outline: as §1
# [17] = target: Neu5Ac(a2-6)Gal(b1-4)GlcNAc(b1-3)Gal(b1-4)GlcNAc(b1-3)Gal(b1-4)GlcNAc(b1-2)Man(a1-3)[Neu5Ac(a2-6)Gal(b1-4)GlcNAc(b1-3)Gal(b1-4)GlcNAc(b1-3)Gal(b1-4)GlcNAc(b1-2)Man(a1-6)]GalNAc
# Outline: as §1
# [18] = target: Neu5Ac(a2-6)Gal(b1-4)GlcNAc(b1-3)Gal(b1-4)GlcNAc(b1-3)GalNAc
# Outline: as §1
# [19] = target: Neu5Ac(a2-6)Gal(b1-4)GlcNAc(b1-3)Gal(b1-4)GlcNAc(b1-3)[Neu5Ac(a2-6)Gal(b1-4)GlcNAc(b1-3)Gal(b1-4)GlcNAc(b1-6)]GalNAc
# Outline: as §1
# [20] = target: Neu5Ac(a2-6)Gal(b1-4)GlcNAc(b1-3)Gal(b1-4)GlcNAc(b1-6)[Gal(b1-3)]GalNAc
# Outline: as §1
# [21] = target: Neu5Ac(a2-6)Gal(b1-4)GlcNAc(b1-3)Gal(b1-4)[Fuc(a1-3)]GlcNAc(b1-3)Gal(b1-4)[Fuc(a1-3)]GlcNAc
# Outline: as §1
# [22] = target: Neu5Ac(a2-6)Gal(b1-4)GlcNAc(b1-3)GalNAc
# Outline: as §1
# [23] = target: Neu5Ac(a2-6)Gal(b1-4)GlcNAc(b1-3)[Neu5Ac(a2-6)Gal(b1-4)GlcNAc(b1-6)]GalNAc
# Outline: as §1
# [24] = target: Neu5Ac(a2-6)Gal(b1-4)GlcNAc(b1-6)GalNAc
# Outline: as §1
# [25] = target: Neu5Ac(a2-6)Gal(b1-4)GlcNAc(b1-6)[Gal(b1-3)GlcNAc(b1-3)]Gal(b1-4)Glc
# Outline: as §1
# [26] = target: Neu5Ac(a2-6)Gal(b1-4)GlcNAc(b1-6)[Gal(b1-3)]GalNAc
# Outline: as §1
# [27] = target: Neu5Ac(a2-6)Gal(b1-4)GlcNAc6S
# Outline: as §1
# Neu5Ac(a2-6)GalNAc = target: Neu5Ac(a2-6)GalNAc
# Outline: as §1
# [28] = target: Neu5Ac(a2-6)GalNAc(b1-4)GlcNAc
# Outline: as §1
# [29] = target: Neu5Ac(a2-6)GalNAc(b1-4)GlcNAc6S
# Outline: as §1
# [30] = target: Neu5Ac(a2-6)GlcNAc(b1-4)GlcNAc
# Outline: as §1
binder,measurement,setting,value
"HA-61200 (Pseudomonas aeruginosa), Q02SP8_PSEAB (protein) MNKCYALVWNVSQGCWNVVSEGSRRRGKPAGAKAAIASVLALLGATALAPAYALPSGGTVVGGSANGEIHLSGGNSLSVNQKVDKLIANWDSFSVAAGERVIFNQPSSSSIALNRVIGTKASDIQGRIDANGQVFLVNPNGVLFGRGAQVNVGGLVASTLDITDAEFNGNSSRYRFTGPSTNGVLNHGGAITAAEGGSIALLGAQVDNRGTVLAQMGGVGLGAGSDLTLNFDGNKLLDIRVDAGVANALASNGGLLKADGGRVLMAARTANALLNTVVNSQGAIEARSLRGKNGRIVLDG",glycan array binding signal (z-score),[1],-0.028
same,glycan array binding signal (z-score),[2],-0.409
same,glycan array binding signal (z-score),[3],-0.204
same,glycan array binding signal (z-score),[4],-0.288
same,glycan array binding signal (z-score),[5],0.232
same,glycan array binding signal (z-score),[6],-0.365
same,glycan array binding signal (z-score),[7],0.627
same,glycan array binding signal (z-score),[8],-0.102
same,glycan array binding signal (z-score),[9],-0.453
same,glycan array binding signal (z-score),[10],-0.027
same,glycan array binding signal (z-score),[11],-0.07
same,glycan array binding signal (z-score),[12],-0.498
same,glycan array binding signal (z-score),[13],-0.904
same,glycan array binding signal (z-score),[14],0.233
same,glycan array binding signal (z-score),[15],-0.431
same,glycan array binding signal (z-score),[16],0.425
same,glycan array binding signal (z-score),[17],4.49
same,glycan array binding signal (z-score),[18],-0.3
same,glycan array binding signal (z-score),[19],-0.534
same,glycan array binding signal (z-score),[20],1.3
same,glycan array binding signal (z-score),[21],0.975
same,glycan array binding signal (z-score),[22],0.793
same,glycan array binding signal (z-score),[23],-0.668
same,glycan array binding signal (z-score),[24],-0.169
same,glycan array binding signal (z-score),[25],-0.627
same,glycan array binding signal (z-score),[26],0.199
same,glycan array binding signal (z-score),[27],-1.15
same,glycan array binding signal (z-score),Neu5Ac(a2-6)GalNAc,0.863
same,glycan array binding signal (z-score),[28],-0.744
same,glycan array binding signal (z-score),[29],0.146
same,glycan array binding signal (z-score),[30],-0.508

# Part of the list above in a different format.
binder | measurement | setting | value
HA-61200 (Pseudomonas aeruginosa), Q02SP8_PSEAB (protein) MNKCYALVWNVSQGCWNVVSEGSRRRGKPAGAKAAIASVLALLGATALAPAYALPSGGTVVGGSANGEIHLSGGNSLSVNQKVDKLIANWDSFSVAAGERVIFNQPSSSSIALNRVIGTKASDIQGRIDANGQVFLVNPNGVLFGRGAQVNVGGLVASTLDITDAEFNGNSSRYRFTGPSTNGVLNHGGAITAAEGGSIALLGAQVDNRGTVLAQMGGVGLGAGSDLTLNFDGNKLLDIRVDAGVANALASNGGLLKADGGRVLMAARTANALLNTVVNSQGAIEARSLRGKNGRIVLDG | glycan array binding signal (z-score) | [3] | -0.204
same | glycan array binding signal (z-score) | [14] | 0.233
